These results are taken from patent publication US20240285634A1, “COMPOUND AND METHOD FOR TREATING CHEMOTHERAPY-ASSOCIATED GASTROINTESTINAL SIDE EFFECTS” (ONQUALITY PHARMACEUTICALS CHINA LTD., priority 2021, published 2024).

In assay [1] the test system is Chemotherapeutic agent-caused constipation models of Balb/c mice. The assay is described as follows: Relieving effect on constipation caused by a chemotherapeutic agent (Examples 202-364). The class given is in vivo. As to conditions: compound intraperitoneal injection 150 mg/kg single, cycle 10 days. From the text:
Construction of mouse animal models: Chemotherapeutic agent-caused constipation models of Balb/c mice were constructed according to the administration mode and frequency of the chemotherapeutic agent as shown in Table 4. […] Thus, chemotherapeutic agent-caused constipation models of mice are very good models to mimic constipation caused by the chemotherapeutic agent.
Balb/c mice were fed for 1 week, and then divided into groups. The experiment was divided into a control group, a chemotherapeutic agent group, and a group of the compound as shown in Formula I, each of which comprised 10 mice, to perform the administration experiment, for which the administration dosage, mode, time and frequency were shown in Table 4. The control group: being injected or intragastrically administered with the same solvent as that used in the group of the compound as shown in Formula I (the administration mode and time were shown in Table 4), and then being injected or intragastrically administered with the same solvent as that used in the chemotherapeutic agent group (the administration mode was shown in Table 4); the chemotherapeutic agent group: being injected or intragastrically administered with the same solvent as that used in the group of the compound as shown in Formula I (the administration mode and time was shown in Table 4), and then being injected or intragastrically administered with the chemotherapeutic agent (the type, administration mode and dosage were shown in Table 4); the group of the compound as shown in Formula I: being injected or intragastrically administered with the compound as shown in Formula I (the administration mode and time was shown in Table 4), and then being administered with the chemotherapeutic agent (the administration mode and dosage were shown in Table 4).
The feces reduction rate was calculated with reference to the method of Ji Eun Kim (Lab Anim Res. 2016 December; 32(4): 231-240.). Feces reduction rate (%)=(the control group−the chemotherapeutic agent group or the group of the compound as shown in Formula I)/the control group*100%
It is regarded as effective remission when the feces reduction rate of mice in the group of the compound as shown in Formula I is reduced compared with that in the chemotherapeutic agent group.
The feces amount of mice within 3 hours was observed and recorded every day. At the end of the experiment, the number of mice in the group of the compound as shown in Formula I whose feces reduction rate was lower than that of mice in the chemotherapeutic agent group was recorded. Table 4 lists various animal experiment combinations of chemotherapeutic agents and the compound as shown in Formula I, as well as the corresponding experimental results.

Assay [2] relates to Chemotherapeutic agent-caused diarrhea models of Balb/c mice. The assay is described as follows: Relieving effect on diarrhea caused by a chemotherapeutic agent (Examples 1-201). The class given is in vivo. From the text:
Construction of mouse animal models: Chemotherapeutic agent-caused diarrhea models of Balb/c mice were constructed according to the administration mode and frequency of the chemotherapeutic agent as shown in Table 3. After administration for several days, mice developed different extents of diarrhea symptoms (as shown in FIG. 1), which were similar to the conditions in human. Thus, chemotherapeutic agent-caused diarrhea models of mice are very good models to mimic diarrhea in human caused by the chemotherapeutic agent.
Balb/c mice were fed for 1 week, and then divided into groups. The experiment was divided into a control group, a chemotherapeutic agent group, and a group of the compound as shown in Formula I, each of which comprised 10 mice, to perform the administration experiment, for which the administration dosage, mode, time and frequency were shown in Table 3. The control group: being injected or intragastrically administered with the same solvent as that used in the group of the compound as shown in Formula I (the injection mode and time were shown in Table 3), and then being injected or intragastrically administered with the same solvent as that used in the chemotherapeutic agent group (the administration mode was shown in Table 3); the chemotherapeutic agent group: being injected or intragastrically administered with the same solvent as that used in the group of the compound as shown in Formula I (the administration mode and time were shown in Table 3), and then being injected or intragastrically administered with the chemotherapeutic agent (the type, administration mode and dosage were shown in Table 3); the group of the compound as shown in Formula I: being injected or intragastrically administered with the compound as shown in Formula I (the administration mode and time were shown in Table 3), and then being administered with the chemotherapeutic agent (the administration mode and dosage were shown in Table 3).
The scoring of diarrhea can refer to the method of Akinobu Kurita (Cancer Chemother Pharmacol 2000; 46:211-20.), Grade 0: normal feces; Grade 1: mild diarrhea, the stools is slightly wet and soft; Grade 2: moderate diarrhea, loose stools and mild perianal contamination; Grade 3: severe diarrhea, watery stools and accompanied by severe perianal staining (see FIG. 1). It is regarded as effective remission when the diarrhea grading of mice in the group of the compound as shown in Formula I is reduced compared with the average diarrhea grading of mice in the chemotherapeutic agent group.
The diarrhea grading of mice was observed and recorded every day. At the end of the experiment, the number of mice in the group of the compound as shown in Formula I whose diarrhea grading was lower than that of mice in the chemotherapeutic agent group was recorded. Table 3 lists various animal experiment combinations of chemotherapeutic agents and the compound as shown in Formula I, as well as the corresponding experimental results. (Relative remission rate %=the number of mice in the group of the compound as shown in Formula I whose diarrhea has been effectively relieved/the total number of mice in the group of the compound as shown in Formula I*100%. The establishment rate of diarrhea model in the chemotherapeutic agent group was 50%-70%, that is, about 5-7 of 10 mice developed diarrhea during the experiment, and there were cases of individual mice death or not developing diarrhea.)

Structures can show the parent of a compound that is named as a salt. The source gives many values for each of these; only a part stands here.

In the case of `CN1CCN(c2ccc(Nc3ncc4cc5n(c4n3)C3(CCCCC3)CNC5=O)nc2)CC1` [Compound I hydrochloride, Trilaciclib dihydrochloride], the “Relative remission rate (%)” value in assay [1] (Example 242, Fluorouracil (5-Fu) intravenous injection 250 mg/kg single, 0.5 h before chemotherapeutic agent) is 30%; in assay [1] (Example 243, Fluorouracil (5-Fu) intravenous injection 250 mg/kg single, 4 h before chemotherapeutic agent) it was 50%; in assay [1] (Example 244, Fluorouracil (5-Fu) intravenous injection 250 mg/kg single, 8 h before chemotherapeutic agent), 70%; in assay [1] (Example 245, Fluorouracil (5-Fu) intravenous injection 250 mg/kg single, 12 h before chemotherapeutic agent), 60%; in assay [1] (Example 271, Oxaliplatin intraperitoneal injection 25 mg/kg single, 0.5 h before chemotherapeutic agent), 30%; in assay [1] (Example 272, Oxaliplatin intraperitoneal injection 25 mg/kg single, 4 h before chemotherapeutic agent) it was 40%. Also, the “Relative remission rate (%)” value in assay [1] (Example 273, Oxaliplatin intraperitoneal injection 25 mg/kg single, 8 h before chemotherapeutic agent) amounted to 50%; in assay [1] (Example 274, Oxaliplatin intraperitoneal injection 25 mg/kg single, 12 h before chemotherapeutic agent), 50%. Further, the Relative remission rate in assay [2] (Ex 27, 5-Fu 125 mg/kg intraperitoneal single, compound 100 mg/kg intravenous single 0.5 h before, cycle 10 days) was 50%; in assay [2] (Ex 28, 5-Fu 125 mg/kg intraperitoneal single, compound 100 mg/kg intravenous single 2 h before, cycle 10 days), 70%; in assay [2] (Ex 29, 5-Fu 125 mg/kg intraperitoneal single, compound 100 mg/kg intravenous single 4 h before, cycle 10 days), 70%; in assay [2] (Ex 30, 5-Fu 125 mg/kg intraperitoneal single, compound 100 mg/kg intravenous single 12 h before, cycle 10 days), 60%; in assay [2] (Ex 48, 5-Fu 125 mg/kg intraperitoneal single, compound 150 mg/kg intraperitoneal single 0.5 h before, cycle 10 days) it was 30%; in assay [2] (Ex 49, 5-Fu 125 mg/kg intraperitoneal single, compound 150 mg/kg intraperitoneal single 2 h before, cycle 10 days), 50%. Also, the Relative remission rate in assay [2] (Ex 50, 5-Fu 125 mg/kg intraperitoneal single, compound 150 mg/kg intraperitoneal single 4 h before, cycle 10 days) stood at 60%; in assay [2] (Ex 51, 5-Fu 125 mg/kg intraperitoneal single, compound 150 mg/kg intraperitoneal single 12 h before, cycle 10 days), 40%; in assay [2] (Ex 78, Oxaliplatin 20 mg/kg intraperitoneal single, compound 150 mg/kg intraperitoneal single 0.5 h before, cycle 8 days), 20%; in assay [2] (Ex 79, Oxaliplatin 20 mg/kg intraperitoneal single, compound 150 mg/kg intraperitoneal single 6 h before, cycle 8 days), 60%; in assay [2] (Ex 80, Oxaliplatin 20 mg/kg intraperitoneal single, compound 150 mg/kg intraperitoneal single 12 h before, cycle 8 days), 40%.
